The record followed here is publication PMC9468174.

Chains of the proteins cited; added tags and fusions are not shown.
UniProt Q12923: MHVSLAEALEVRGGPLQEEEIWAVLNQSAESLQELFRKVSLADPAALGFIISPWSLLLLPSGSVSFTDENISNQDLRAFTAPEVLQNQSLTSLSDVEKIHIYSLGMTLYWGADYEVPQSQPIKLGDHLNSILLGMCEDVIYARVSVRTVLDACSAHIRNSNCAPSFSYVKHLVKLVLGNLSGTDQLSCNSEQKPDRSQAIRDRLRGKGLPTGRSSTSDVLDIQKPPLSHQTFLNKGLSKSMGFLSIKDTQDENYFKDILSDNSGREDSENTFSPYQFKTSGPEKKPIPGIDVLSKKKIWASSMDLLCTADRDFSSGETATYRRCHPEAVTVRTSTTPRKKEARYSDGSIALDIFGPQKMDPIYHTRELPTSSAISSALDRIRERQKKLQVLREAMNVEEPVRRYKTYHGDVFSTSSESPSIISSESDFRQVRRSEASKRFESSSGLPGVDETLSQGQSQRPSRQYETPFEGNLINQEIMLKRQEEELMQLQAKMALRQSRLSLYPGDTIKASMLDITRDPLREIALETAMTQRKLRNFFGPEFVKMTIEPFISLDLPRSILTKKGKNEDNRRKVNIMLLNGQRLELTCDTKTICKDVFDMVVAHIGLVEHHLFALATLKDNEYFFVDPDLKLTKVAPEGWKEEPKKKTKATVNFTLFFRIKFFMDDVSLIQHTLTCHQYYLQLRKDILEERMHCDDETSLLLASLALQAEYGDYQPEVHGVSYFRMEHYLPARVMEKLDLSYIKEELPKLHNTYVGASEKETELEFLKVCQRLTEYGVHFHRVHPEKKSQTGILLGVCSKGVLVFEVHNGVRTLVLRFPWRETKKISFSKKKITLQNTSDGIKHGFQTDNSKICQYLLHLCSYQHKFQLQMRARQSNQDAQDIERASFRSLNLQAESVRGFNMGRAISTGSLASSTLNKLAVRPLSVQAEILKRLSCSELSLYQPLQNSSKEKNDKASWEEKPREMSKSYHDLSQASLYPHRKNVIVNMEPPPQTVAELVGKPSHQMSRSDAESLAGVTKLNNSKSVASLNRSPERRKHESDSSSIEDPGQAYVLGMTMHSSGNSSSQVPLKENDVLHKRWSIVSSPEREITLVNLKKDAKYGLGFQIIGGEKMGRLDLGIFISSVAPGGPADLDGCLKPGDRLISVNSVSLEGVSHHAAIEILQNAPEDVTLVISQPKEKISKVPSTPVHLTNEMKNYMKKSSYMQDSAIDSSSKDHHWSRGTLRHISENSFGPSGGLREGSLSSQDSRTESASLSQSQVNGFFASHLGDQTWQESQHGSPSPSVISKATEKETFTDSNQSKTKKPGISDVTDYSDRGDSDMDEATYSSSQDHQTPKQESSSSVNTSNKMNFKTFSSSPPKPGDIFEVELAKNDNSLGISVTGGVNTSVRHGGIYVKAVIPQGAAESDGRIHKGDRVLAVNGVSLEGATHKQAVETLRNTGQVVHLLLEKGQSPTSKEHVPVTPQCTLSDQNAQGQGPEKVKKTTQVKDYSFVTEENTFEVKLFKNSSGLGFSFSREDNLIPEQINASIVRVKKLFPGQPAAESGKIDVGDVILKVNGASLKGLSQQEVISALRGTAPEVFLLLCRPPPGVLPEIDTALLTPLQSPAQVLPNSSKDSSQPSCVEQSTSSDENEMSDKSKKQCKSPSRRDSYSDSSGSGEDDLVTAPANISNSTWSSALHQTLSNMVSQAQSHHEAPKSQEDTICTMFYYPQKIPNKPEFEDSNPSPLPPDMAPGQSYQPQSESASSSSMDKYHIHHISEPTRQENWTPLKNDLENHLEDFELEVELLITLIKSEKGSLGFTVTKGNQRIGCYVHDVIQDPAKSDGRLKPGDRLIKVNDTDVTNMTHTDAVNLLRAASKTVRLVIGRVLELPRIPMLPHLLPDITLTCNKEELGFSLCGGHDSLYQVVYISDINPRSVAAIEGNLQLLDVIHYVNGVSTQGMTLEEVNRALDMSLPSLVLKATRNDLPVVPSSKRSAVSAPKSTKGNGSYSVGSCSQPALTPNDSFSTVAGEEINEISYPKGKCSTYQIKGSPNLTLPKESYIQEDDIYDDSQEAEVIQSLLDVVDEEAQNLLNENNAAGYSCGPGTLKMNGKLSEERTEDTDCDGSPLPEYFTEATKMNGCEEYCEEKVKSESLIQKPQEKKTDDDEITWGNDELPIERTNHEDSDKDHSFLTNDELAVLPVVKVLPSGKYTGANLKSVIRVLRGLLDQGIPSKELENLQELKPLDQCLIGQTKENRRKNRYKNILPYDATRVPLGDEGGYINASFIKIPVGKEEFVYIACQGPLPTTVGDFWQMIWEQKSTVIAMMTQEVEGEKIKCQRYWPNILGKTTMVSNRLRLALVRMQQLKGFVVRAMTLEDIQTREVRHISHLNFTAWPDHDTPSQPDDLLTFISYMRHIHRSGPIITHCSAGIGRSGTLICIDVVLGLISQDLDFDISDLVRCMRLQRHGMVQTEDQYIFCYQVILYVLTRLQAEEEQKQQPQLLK
UniProt O00560: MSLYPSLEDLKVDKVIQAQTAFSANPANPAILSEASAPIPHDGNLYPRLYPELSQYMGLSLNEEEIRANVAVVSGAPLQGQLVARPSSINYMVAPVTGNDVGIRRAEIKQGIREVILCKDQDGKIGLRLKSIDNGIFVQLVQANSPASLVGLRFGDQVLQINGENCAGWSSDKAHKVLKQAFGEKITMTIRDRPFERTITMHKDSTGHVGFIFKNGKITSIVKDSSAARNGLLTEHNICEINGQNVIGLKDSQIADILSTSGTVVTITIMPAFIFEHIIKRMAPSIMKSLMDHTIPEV

Results are given in words; binding and its absence hold for the method and conditions named. In cells and extracts the contact can be indirect. Here binding means that the protein was enriched with, or labelled near, the bait; the list need not be complete.

The target of the test is PTPN13 (human (endogenous in iRPE cells derived from hUCMSCs)) (UniProt Q12923). As to the kind of experiment: affinity purification with mass spectrometry; Co-IP from iRPE cell lysate with anti-PTPN13 antibody on Protein A + G magnetic beads, 4 °C overnight; eluate digested with trypsin, Nano-HPLC and Q Exactive plus MS/MS.

As to syntenin1 (from UniProt O00560 1-298), the binding entry is given as “binds”.
